No constants are given. Whether binding was seen depends on the method and setting. Binding seen in cells or lysates may run through a third protein. Some results given as binding are weak or reduced against the parent protein; the word gives no strength.
Assays:
[1] = target: TEA domain transcription factor 1 (TEAD1) (mouse (endogenous in neonatal mouse cardiac fibroblasts and mouse heart)) (UniProt P30051); experiment: co-IP; co-immunoprecipitation of TEAD1 with YAP or BRD4 after treatment with VT103 (Supplementary Fig. 13b, c)
[2] = target: TEA domain transcription factor 1 (TEAD1) (mouse (endogenous in neonatal mouse cardiac fibroblasts and mouse heart)) (UniProt P30051); experiment: co-IP; TEAD1/YAP co-immunoprecipitation in vitro (NMCFs) and in vivo (mouse heart), with or without the TEAD1 inhibitor VT103

Protein sequences, listed by entry. Tags and fused reporters are not part of them.
UniProt P30051: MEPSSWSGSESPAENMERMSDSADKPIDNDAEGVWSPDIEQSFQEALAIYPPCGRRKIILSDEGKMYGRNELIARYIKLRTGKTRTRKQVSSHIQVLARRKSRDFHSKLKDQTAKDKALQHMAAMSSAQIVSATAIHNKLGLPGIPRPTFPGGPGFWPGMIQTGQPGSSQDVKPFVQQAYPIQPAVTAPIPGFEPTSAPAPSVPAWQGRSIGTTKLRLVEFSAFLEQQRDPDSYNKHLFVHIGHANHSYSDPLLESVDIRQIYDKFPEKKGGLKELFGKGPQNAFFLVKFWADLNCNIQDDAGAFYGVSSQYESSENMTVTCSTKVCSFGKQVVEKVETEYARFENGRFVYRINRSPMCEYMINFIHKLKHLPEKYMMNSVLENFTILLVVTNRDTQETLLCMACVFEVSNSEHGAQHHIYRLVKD
UniProt P46938: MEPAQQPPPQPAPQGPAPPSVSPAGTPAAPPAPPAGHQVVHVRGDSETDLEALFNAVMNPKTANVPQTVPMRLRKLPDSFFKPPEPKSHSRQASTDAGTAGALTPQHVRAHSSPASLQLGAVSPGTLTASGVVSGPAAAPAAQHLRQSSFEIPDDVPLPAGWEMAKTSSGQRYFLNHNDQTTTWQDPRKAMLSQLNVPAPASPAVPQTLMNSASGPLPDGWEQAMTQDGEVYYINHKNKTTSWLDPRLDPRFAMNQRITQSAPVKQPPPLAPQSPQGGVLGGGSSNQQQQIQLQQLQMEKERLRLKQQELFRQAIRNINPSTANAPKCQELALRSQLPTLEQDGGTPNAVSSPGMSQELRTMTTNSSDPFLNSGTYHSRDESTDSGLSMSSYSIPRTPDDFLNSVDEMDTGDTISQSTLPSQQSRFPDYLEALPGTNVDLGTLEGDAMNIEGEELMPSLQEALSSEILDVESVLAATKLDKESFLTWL

- binding [2]: binds
Substance: Yes-associated protein (YAP) (from UniProt P46938 1-488)
- binding [1]: no binding (condition: after treatment with VT103)
